{"sequences": {"note": "The chains behind the UniProt entries cited, without tags or fusion partners.", "UniProt O43255": "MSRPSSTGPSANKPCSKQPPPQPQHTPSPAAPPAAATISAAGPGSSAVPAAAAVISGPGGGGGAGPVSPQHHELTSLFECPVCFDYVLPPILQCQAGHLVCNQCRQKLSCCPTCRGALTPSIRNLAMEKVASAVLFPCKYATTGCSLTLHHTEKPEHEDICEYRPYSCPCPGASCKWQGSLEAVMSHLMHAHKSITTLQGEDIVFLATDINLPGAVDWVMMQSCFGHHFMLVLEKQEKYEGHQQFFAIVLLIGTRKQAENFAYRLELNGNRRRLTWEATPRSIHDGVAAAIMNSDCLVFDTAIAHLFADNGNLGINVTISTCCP"}, "source": "paper PMC10924340", "target": "T1, Flag-LATS2 (large tumor suppressor kinase 2) (UniProt Q9NRM7)", "T1 sequence": "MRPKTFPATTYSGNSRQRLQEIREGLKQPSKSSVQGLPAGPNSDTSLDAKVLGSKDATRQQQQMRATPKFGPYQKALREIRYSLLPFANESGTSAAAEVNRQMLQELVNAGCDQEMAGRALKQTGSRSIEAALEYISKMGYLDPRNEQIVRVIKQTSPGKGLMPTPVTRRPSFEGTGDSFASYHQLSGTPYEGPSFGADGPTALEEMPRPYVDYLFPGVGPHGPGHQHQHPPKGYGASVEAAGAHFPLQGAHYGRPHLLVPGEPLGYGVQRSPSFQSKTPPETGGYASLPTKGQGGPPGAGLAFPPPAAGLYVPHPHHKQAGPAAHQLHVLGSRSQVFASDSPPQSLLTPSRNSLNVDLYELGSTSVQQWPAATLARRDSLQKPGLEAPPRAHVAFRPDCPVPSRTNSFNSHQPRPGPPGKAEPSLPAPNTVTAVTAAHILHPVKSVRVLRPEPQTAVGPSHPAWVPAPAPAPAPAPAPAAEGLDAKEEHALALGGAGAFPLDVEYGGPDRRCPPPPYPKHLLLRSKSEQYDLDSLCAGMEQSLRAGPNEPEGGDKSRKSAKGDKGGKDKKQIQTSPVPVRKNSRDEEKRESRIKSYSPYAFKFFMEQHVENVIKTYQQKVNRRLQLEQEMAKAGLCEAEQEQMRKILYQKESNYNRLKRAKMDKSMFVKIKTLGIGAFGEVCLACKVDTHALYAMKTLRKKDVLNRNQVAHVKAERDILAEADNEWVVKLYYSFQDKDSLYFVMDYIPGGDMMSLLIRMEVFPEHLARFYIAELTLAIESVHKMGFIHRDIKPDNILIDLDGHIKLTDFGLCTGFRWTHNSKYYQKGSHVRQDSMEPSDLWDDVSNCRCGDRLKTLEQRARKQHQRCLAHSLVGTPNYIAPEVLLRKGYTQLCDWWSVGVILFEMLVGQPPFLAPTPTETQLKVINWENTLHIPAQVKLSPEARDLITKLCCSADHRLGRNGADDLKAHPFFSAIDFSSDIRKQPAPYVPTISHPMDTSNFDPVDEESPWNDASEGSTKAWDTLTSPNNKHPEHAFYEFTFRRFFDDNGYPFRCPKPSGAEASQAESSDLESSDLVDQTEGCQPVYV", "assay": "affinity purification with mass spectrometry; IP-MS of LATS2: cells transfected with Flag-LATS2 and HA-Ub, lysed in IP buffer after 48 h, mixed with pre-incubated beads for 16 h, washed three times, beads analysed by MS; methods name HEK-293T, results name HK-2 cells", "note": "Results are given in words; binding and its absence hold for the method and conditions named. Binding seen in cells or lysates may run through a third protein. Here binding means that the protein was enriched with, or labelled near, the bait; the list need not be complete. Where a sequence is shown, tags or fusion partners need not be part of it."}
{"substance": "SIAH2 (seven in absentia homolog 2), E3 ligase (from UniProt O43255 1-324) (enzyme)", "values": [{"measurement": "binding", "value": "binds"}]}
